PubChem BioAssay AID1224830, NIAID – 2016
Purpose: 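Host factors that control LPS-induced TNF expression in human macrophages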 (primary screen). Cells: human THP-1 monocytic leukaemia cells, TNF dual-luciferase reporter clone, PMA-differentiated to macrophage-like cells. Knock-down reagent: siRNA pool against human genes, 50 nM. Duration: LPS for 4 h, given about 3 days after siRNA transfection. Treatment: bacterial LPS (TLR4 ligand), 10 ng/ml. Measurement: 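TNF firefly reporter luminescence divided by renilla, normalised to the plate median, then turned into a robust z-score for each replicate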. Direction: TNF reporter robust z-score: higher = stronger TNF reporter response to LPS. Hit rule: 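Each well counts as active if its z-score is over 2.8 or under -1.5; controls are left without a call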.
This is one part, drawn at random, of about 18,000 reagents tested. About 2,900 of all reagents (16%) count as active. 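Calls are made per well; low scores hint the gene aids the LPS response, high scores that it dampens it.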 Unmarked entries are inactive. Repeated entries: four replicate wells of each siRNA pool. No sequences are given here.

Gene | TNF reporter robust z-score
SKA3 | -0.75
SKA3 | -0.4
SKA3 | -1.5
SKA3 | -0.72
GPR62 | 0.06
GPR62 | 1.28
GPR62 | 0.34
GPR62 | 1.18
UCK2 | 0.19
UCK2 | -1.02
UCK2 | -0.47
UCK2 | -0.26
SLC20A1 | 0.62
SLC20A1 | 1.23
SLC20A1 | 0.34
SLC20A1 | 2.58
TMEM87B | 0.88
TMEM87B | 1.78
TMEM87B | 0.43
TMEM87B | 2.98 (active)
LDHAL6B | -1.57 (active)
LDHAL6B | -0.77
LDHAL6B | -1.05
LDHAL6B | -0.49
H2AC16 | 1.17
H2AC16 | -0.53
H2AC16 | 0.08
H2AC16 | 0.09
KRTAP5-6 | -0.49
KRTAP5-6 | 0.36
KRTAP5-6 | -0.03
KRTAP5-6 | 0.02
SIRT4 | -1.08
SIRT4 | -1.13
SIRT4 | -1.04
SIRT4 | -0.93
PPFIBP2 | -0.54
PPFIBP2 | 0.45
PPFIBP2 | 1.08
PPFIBP2 | 0.8
PTCRA | -0.5
PTCRA | 0.52
PTCRA | -0.29
PTCRA | -0.9
ARHGEF10L | 0.39
ARHGEF10L | 1.38
ARHGEF10L | 0.31
ARHGEF10L | 2.41
RAB26 | 1.18
RAB26 | 1.91
RAB26 | 1.67
RAB26 | 0.26
TAF5 | 1.76
TAF5 | 1.03
TAF5 | 1.27
TAF5 | 1
MIEN1 | 4.76 (active)
MIEN1 | 3.19 (active)
MIEN1 | 0.66
MIEN1 | 1.15
SLC30A3 | 0.03
SLC30A3 | 0.65
SLC30A3 | 0.08
SLC30A3 | 1.75
TMEM232 | -0.7
TMEM232 | -1.18
TMEM232 | -0.08
TMEM232 | 0.35
ASAH2 | 0.12
ASAH2 | -0.31
ASAH2 | -0.94
ASAH2 | 0.33
PPP1R13L | 0.72
PPP1R13L | 0.27
PPP1R13L | 0.5
PPP1R13L | 1.24

10 of these entries, reformatted:
Gene	TNF reporter robust z-score
KRTAP5-6	0.36
KRTAP5-6	-0.03
KRTAP5-6	0.02
SIRT4	-1.08
SIRT4	-1.13
SIRT4	-1.04
SIRT4	-0.93
PPFIBP2	-0.54
PPFIBP2	0.45
PPFIBP2	1.08
